Values quoted from earlier work as cited in PMC9224751 (International Journal of Molecular Sciences, 2022).
Where two headings read alike, the source gives them in different places.

Experiments:
[1] = tested on: SARS-CoV-2; settings: Vero E6 cells; published; cited from earlier work
[2] = tested on: SARS-CoV-2; settings: Calu-3; published; cited from earlier work

In the case of `CCC(CC)COC(=O)[C@H](C)N[P@](=O)(OC[C@H]1O[C@@](C#N)(c2ccc3c(N)ncnn23)[C@H](O)[C@@H]1O)Oc1ccccc1` [Remdesivir], the IC50 [1] is listed as 1490 nM and the IC50 [2] is listed as 600 nM.
